Data reported in PubChem BioAssay AID504834 (National Center for Advancing Translational Sciences (NCATS), 2011).
In all, about 320,000 compounds went through this assay and about 22,000 (6.9%) were called active. Inconclusive means that the source gave no clear call. Such entries were picked first, then a sample of the others. The call rests on the fitted dose curve; in most records, active means well fitted inhibition curve with a large enough effect; inconclusive means small, poorly fitted or top-dose-only effect, or another doubt; inactive means no such curve, though single readings can be large or run the other way. Potencies of inconclusive entries are doubtful fits and often do not repeat.
On the % scale 0 is the no-effect control and ±100 the full control effect; potency means the concentration at half of the fitted maximal effect.

Assay: Primary qHTS for delayed death inhibitors of the malarial parasite plastid, 96 hour incubation
Conditions: P. falciparum luciferase reporter growth; series mostly up to 28.7 µM; activity change, negative = inhibition: at the top concentration
Outline: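 Two-generation exposure (96 h) targets delayed-death phenotype. Reporter parasites carrying integrated firefly luciferase, in red cells at 2% hematocrit and 0.05% parasitemia final, kept at 37 C, 5% CO2; luminescence loss indicates inhibition.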
In the case of `Nc1cc(N)nc(SCC(=O)NCCC2=CCCCC2)n1`, the Potency is reported as inconclusive: 3.7 µM [inhibitor, single point]. For `CCn1c(=O)cc(SCC(=O)N2CCN(Cc3ccc4c(c3)OCO4)CC2)c2ccccc21`, the Potency was inconclusive: 4.15 µM [inhibitor, single point]. With `Cc1ncccc1C(=O)N1CCCC(CCC(=O)N2CCN(c3ccccn3)CC2)C1` (configuration not stated) the “activity change, negative = inhibition” value was inactive: 9.57%. In the case of `CC1CCCN(C(=O)C(=O)c2cn(CC(=O)N3CCCCCC3)c3ccccc23)C1` (configuration not stated), the Potency is reported as active: 11.7 µM. For `Nc1cc(=O)[nH]c(=S)n1-c1cccc(C(F)(F)F)c1`, the Potency was inconclusive: 0.415 µM [inhibitor, full curve, poor fit]. For `Cc1ccc2[nH]c3c(c2c1)CN(C(=O)CN1CCN(c2ccccn2)CC1)CC3`, the Potency was inconclusive: 9.28 µM [inhibitor, single point]. With `O=C(ON=C1CCN(c2ccc([N+](=O)[O-])cc2)CC1)c1ccccc1` the “activity change, negative = inhibition” value was inactive: 25.3%. In the case of `Cc1ccc(-c2cc(C(=O)NN)n[nH]2)o1`, the “activity change, negative = inhibition” value is reported as inactive: -13.1%. For `CC(Oc1ccccc1)C(=O)N1CCN(c2ccc(N3CCCCCC3)nn2)CC1` (configuration not stated), the Potency was active: 10.4 µM. With `Cc1nc2c(C(=O)N3CCC4(CC3)OCCO4)cnn2c(C)c1Cc1cccc(Cl)c1` the Potency was inconclusive: 14.7 µM [inhibitor, partial curve, poor fit]. In the case of `CSc1ccc(CN(C)C(=O)C(Cc2ccccc2)NC(=O)c2ccccc2)cc1` (configuration not stated), the Potency is reported as inconclusive: 18.5 µM [inhibitor, single point]. With `c1ccc(-c2ncnc3cc4n(c23)CCC4)cc1` the Potency was inconclusive: 4.15 µM [inhibitor, single point]. For `CC(=O)Nc1ccc(Nc2cc(C)nc3c(-c4ccc(Cl)cc4)c(C)nn23)cc1`, the “activity change, negative = inhibition” value was inactive: 0%. In the case of `CC(C)(C)Sc1ccc2nc3c(n2c1)CCCC3`, the Potency is reported as inconclusive: 11.7 µM [inhibitor, single point]. In the case of `Cc1ccc(NC(=O)NCc2c(C)nn(C)c2C)cc1Cl`, the Potency is reported as inconclusive: 2.62 µM [inhibitor, partial curve, poor fit]. For `O=C(Nc1ccc2c(c1)CCC2)Nc1ccc(F)cc1F`, the Potency was inconclusive: 18.5 µM [inhibitor, single point]. For `O=C(CSc1nncs1)NC1CCCCCCC1`, the Potency was inconclusive: 3.29 µM [inhibitor, partial curve, poor fit]. For `CC(C)CCN1C(=O)c2ccc(C(=O)Nc3cc(C(=O)O)cc(C(=O)O)c3)cc2C1=O`, the Potency was inconclusive: 11.7 µM [inhibitor, single point]. For `CC(CN1CCOCC1)OC(=O)c1ccccc1Cl` (configuration not stated), the Potency was inconclusive: 18.5 µM [inhibitor, single point]. In the case of `Cc1ccc(C(=O)N2CCN(c3ccc(NC(=O)c4cccs4)cc3)CC2)cc1`, the Potency is reported as inconclusive: 4.15 µM [inhibitor, single point]. In the case of `CCCn1c(SCC(=O)NCCc2ccc(Cl)cc2Cl)n[nH]c1=O`, the Potency is reported as inconclusive: 5.22 µM [inhibitor, partial curve]. With `CC(C(=O)NC1CCCC1)N1C(=O)c2cccc3cccc1c23` (configuration not stated) the Potency was active: 2.33 µM. In the case of `O=C(NCc1ccccn1)c1ccc2ccccc2n1`, the Potency is reported as inconclusive: 18.5 µM [inhibitor, single point]. In the case of `CCN(c1ccccc1)S(=O)(=O)c1cc(C(=O)NCc2ccco2)ccc1C`, the Potency is reported as active: 13.1 µM. In the case of `COc1ccc2nc(NC(=O)CC3Oc4ccccc4NC3=O)sc2c1` (configuration not stated), the “activity change, negative = inhibition” value is reported as inactive: 16.1%. For `Cc1cc(C)c2c(CN3CCC(C)CC3)cc(=O)oc2c1`, the “activity change, negative = inhibition” value was inactive: 22.9%. In the case of `Cc1cccc(NC(=O)COc2ccc(/C=N\n3cnnc3)cc2)c1`, the Potency is reported as inconclusive: 10.4 µM [inhibitor, partial curve, poor fit]. With `CCOc1ccc(-c2nn3c(-c4ccc(OC)cc4)nnc3s2)cc1` the Potency was inconclusive: 0.465 µM [inhibitor, full curve]. For `COc1cccc(-c2nn(-c3ccccc3)cc2/C=C(\C#N)C(=O)NCCCn2ccnc2)c1`, the Potency was active: 1.65 µM. With `Cc1ccn2c(Nc3ccc4c(c3)OCO4)c(-c3ccc(O)cc3)nc2c1` the Potency was active: 11.7 µM. With `C[C@]12C=CC(=O)C=C1CC[C@@H]1C2CC[C@]2(C)OC(=O)CCC12` (some centres not stated) the Potency was inconclusive: 6.01 µM [inhibitor, partial curve, poor fit]. For `CCCCN1CCCC1C(=O)Nc1c(C)cc(C)cc1C` (configuration not stated), the Potency was active: 2.62 µM. With `Cc1ccc(S(=O)(=O)NC(C)(C)CSc2ccccn2)cc1` the “activity change, negative = inhibition” value was inactive: 23%. In the case of `COc1cccc(C(=O)Nc2sc3c(c2C#N)CCN(C(C)=O)C3)c1`, the “activity change, negative = inhibition” value is reported as inactive: 12.3%. For `CCCn1c(N2CCN(CC(=O)c3c(C)n(C)c4ccc(OC)cc34)CC2)nc2c1c(=O)[nH]c(=O)n2C`, the Potency was active: 2.08 µM. For `Cc1c(C(c2cccs2)c2c(C)n(C)n(-c3ccccc3)c2=O)c(=O)n(-c2ccccc2)n1C`, the Potency was inconclusive: 5.22 µM [inhibitor, partial curve, poor fit]. In the case of `CCCCC1=CC2=CC(=O)C(C)(OC(=O)CC)C(=O)C2=CN1CCc1ccccn1` (configuration not stated), the Potency is reported as inconclusive: 13.1 µM [inhibitor, partial curve, poor fit]. In the case of `CCN1C(=O)[C@H]2[C@@H](c3ccc(C)cc3)N3C(=O)N(c4cccc(Cl)c4)C(=O)[C@@]3(CC)[C@H]2C1=O`, the Potency is reported as inconclusive: 18.5 µM [inhibitor, single point]. With `CCCSc1ccc([C@@H]2[C@@H]3C(=O)N(C)C(=O)[C@@H]3[C@]3(C(=O)OC)CCCN23)cc1OC` the Potency was active: 8.28 µM. In the case of `COc1ccc(NC(=O)CCC(=O)Nc2nnc(CC(C)C)s2)cc1Cl`, the Potency is reported as inconclusive: 18.5 µM [inhibitor, single point]. For `COc1cccc(CNS(=O)(=O)c2cc(Br)cc3c2N(C(C)=O)C(C)C3)c1` (configuration not stated), the Potency was inconclusive: 18.5 µM [inhibitor, single point]. In the case of `CCOc1ccc(-n2c(=O)[nH]cc(C(=O)N3CCc4ccccc43)c2=O)cc1`, the “activity change, negative = inhibition” value is reported as inactive: -12.7%. For `COCCCn1c(C)nnc1SCc1ccc(C(C)(C)C)cc1`, the “activity change, negative = inhibition” value was inactive: 1.84%. In the case of `CC(=O)Nc1ccc(Nc2ccc([N+](=O)[O-])cn2)cc1`, the Potency is reported as inconclusive: 18.5 µM [inhibitor, single point]. For `CNC(=O)C(=O)NCCC1CCCCN1S(=O)(=O)c1cccs1` (configuration not stated), the “activity change, negative = inhibition” value was inactive: 1.89%. For `CC(C)C[C@H](NC(=O)c1nc[nH]c1C(=O)N1CCN(C(=O)OC(C)(C)C)CC1)C(=O)OC(C)(C)C`, the Potency was inconclusive: 14.7 µM [inhibitor, single point]. With `Clc1cc(Cl)c(-c2cc(Cl)c(Cl)cc2Cl)cc1Cl` the Potency was inconclusive: 14.7 µM [inhibitor, single point]. For `CCOC(=O)c1c(C)[nH]c(N=Nc2cccc(OC)c2)c1C`, the “activity change, negative = inhibition” value was inactive: 256%. With `CCCCn1c(N)c(N(CCOC)C(=O)C2CC(=O)N(Cc3ccco3)C2)c(=O)[nH]c1=O` (configuration not stated) the “activity change, negative = inhibition” value was inactive: -3.45%. For `CN(C)CCCO[C@@H]1[C@H]2OC(C)(C)O[C@H]2O[C@@H]1[C@H](O)CO`, the Potency was inconclusive: 10.4 µM [inhibitor, partial curve, poor fit]. With `O=C(NCCNC(=O)c1cccc(O)c1)c1cccc(O)c1` the Potency was inconclusive: 18.5 µM [inhibitor, single point]. For `CC1(OC(=O)C2CCCC2)C(=O)C=C2C=C(c3ccsc3)N(C3CC3)C=C2C1=O` (configuration not stated), the Potency was inconclusive: 13.1 µM [inhibitor, single point]. In the case of `CCOc1cc2c(C#N)c(N3CCCCC3)nc(N)c2c(N)n1`, the Potency is reported as inconclusive: 11.7 µM [inhibitor, partial curve, poor fit]. In the case of `CN(C(=O)c1cccnc1)c1nnc(-c2cnccn2)s1`, the Potency is reported as inconclusive: 18.5 µM [inhibitor, single point]. With `O=C(NC1CC2CCCC(C1)N2C(=O)Nc1ccc(Cl)c(C(F)(F)F)c1)C1CC1` (configuration not stated) the “activity change, negative = inhibition” value was inactive: 99.9%. For `O=C(NCc1ccco1)c1cc(-c2ccc3c(c2)OCO3)on1`, the Potency was inconclusive: 10.4 µM [inhibitor, single point]. For `COc1ccc(OC)c(C(=O)NC(CC(N)=O)c2ccc(NCC3CC3)c([N+](=O)[O-])c2)c1` (configuration not stated), the Potency was inconclusive: 0.165 µM [inhibitor, full curve, poor fit]. With `O=C(NC1CCCC1)C(c1ccco1)N(Cc1ccccc1)C(=O)c1csnn1` (configuration not stated) the Potency was inconclusive: 10.4 µM [inhibitor, single point]. With `Cc1ccc(N(C(C)C(=O)N2CCC(C)CC2)S(C)(=O)=O)cc1C` (configuration not stated) the Potency was inconclusive: 10.4 µM [inhibitor, partial curve, poor fit]. For `CCOC1(OCC)C(c2ccc(N)cc2)C(C#N)(C#N)C1(OCC)OCC` (configuration not stated), the Potency was inconclusive: 0.465 µM [inhibitor, partial curve, poor fit]. With `O=C(CCCCn1c(=O)c2ccccc2n(Cc2ccc(F)cc2Cl)c1=O)NCc1ccco1` the Potency was inconclusive: 2.62 µM [inhibitor, single point]. In the case of `CCOc1cc(NCCN2CCOCC2)c([N+](=O)[O-])cc1OCC`, the Potency is reported as inconclusive: 4.15 µM [inhibitor, single point]. In the case of `Cc1ccc(-n2ncc3c2ncn2c(C)nnc32)cc1C`, the Potency is reported as inconclusive: 3.7 µM [inhibitor, single point]. In the case of `COc1cccc(C2/C(=C(\O)c3ccc4c(c3)OCCO4)C(=O)C(=O)N2CC2CCCO2)c1` (configuration not stated), the Potency is reported as inconclusive: 13.1 µM [inhibitor, single point]. With `Cn1nc(-c2ccc(Cl)cc2)c2cc(C(=O)N3CCN(c4ccccc4)CC3)sc21` the Potency was inconclusive: 4.15 µM [inhibitor, partial curve]. In the case of `CC1CCCCC1NC(=O)c1ccc(S(=O)(=O)NCc2ccco2)cc1` (configuration not stated), the Potency is reported as inconclusive: 5.22 µM [inhibitor, partial curve, poor fit]. In the case of `COc1ccc(-c2csc3ncnc(Oc4cccc5ccc(C)nc45)c23)cc1`, the Potency is reported as inconclusive: 13.1 µM [inhibitor, single point].
